Data from article PMC7758050.
Numbering of substitutions follows the chain as printed. These are yes or no findings as the source states them, for the method shown. In cells and extracts the contact can be indirect. Some entries that bind do so weakly or less than the wild type. For some assays here: Where a sequence is shown, tags or fusion partners need not be part of it.

Amino acid sequences for entries named in this document (tags omitted).
UniProt Q92831: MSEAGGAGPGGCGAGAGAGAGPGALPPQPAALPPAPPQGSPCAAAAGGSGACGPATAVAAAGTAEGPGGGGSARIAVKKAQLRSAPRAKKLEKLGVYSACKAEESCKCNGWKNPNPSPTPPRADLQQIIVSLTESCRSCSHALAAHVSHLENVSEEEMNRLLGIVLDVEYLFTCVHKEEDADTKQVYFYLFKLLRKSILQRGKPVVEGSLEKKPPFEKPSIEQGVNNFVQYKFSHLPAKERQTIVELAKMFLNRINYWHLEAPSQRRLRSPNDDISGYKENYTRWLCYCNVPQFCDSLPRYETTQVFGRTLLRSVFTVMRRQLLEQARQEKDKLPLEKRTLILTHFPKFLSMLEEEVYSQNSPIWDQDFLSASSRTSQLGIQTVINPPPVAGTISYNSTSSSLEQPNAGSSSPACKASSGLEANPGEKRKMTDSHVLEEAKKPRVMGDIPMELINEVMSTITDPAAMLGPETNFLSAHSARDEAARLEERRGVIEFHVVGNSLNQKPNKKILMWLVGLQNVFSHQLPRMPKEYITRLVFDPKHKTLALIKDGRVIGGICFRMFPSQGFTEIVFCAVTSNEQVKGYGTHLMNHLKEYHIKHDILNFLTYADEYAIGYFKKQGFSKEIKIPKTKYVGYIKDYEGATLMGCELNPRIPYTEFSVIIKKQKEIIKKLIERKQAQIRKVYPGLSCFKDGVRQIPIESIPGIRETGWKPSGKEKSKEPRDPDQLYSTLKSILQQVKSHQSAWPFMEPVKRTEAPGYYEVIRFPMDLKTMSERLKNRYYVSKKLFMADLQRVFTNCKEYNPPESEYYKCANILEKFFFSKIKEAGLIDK
UniProt Q9Y6Q9: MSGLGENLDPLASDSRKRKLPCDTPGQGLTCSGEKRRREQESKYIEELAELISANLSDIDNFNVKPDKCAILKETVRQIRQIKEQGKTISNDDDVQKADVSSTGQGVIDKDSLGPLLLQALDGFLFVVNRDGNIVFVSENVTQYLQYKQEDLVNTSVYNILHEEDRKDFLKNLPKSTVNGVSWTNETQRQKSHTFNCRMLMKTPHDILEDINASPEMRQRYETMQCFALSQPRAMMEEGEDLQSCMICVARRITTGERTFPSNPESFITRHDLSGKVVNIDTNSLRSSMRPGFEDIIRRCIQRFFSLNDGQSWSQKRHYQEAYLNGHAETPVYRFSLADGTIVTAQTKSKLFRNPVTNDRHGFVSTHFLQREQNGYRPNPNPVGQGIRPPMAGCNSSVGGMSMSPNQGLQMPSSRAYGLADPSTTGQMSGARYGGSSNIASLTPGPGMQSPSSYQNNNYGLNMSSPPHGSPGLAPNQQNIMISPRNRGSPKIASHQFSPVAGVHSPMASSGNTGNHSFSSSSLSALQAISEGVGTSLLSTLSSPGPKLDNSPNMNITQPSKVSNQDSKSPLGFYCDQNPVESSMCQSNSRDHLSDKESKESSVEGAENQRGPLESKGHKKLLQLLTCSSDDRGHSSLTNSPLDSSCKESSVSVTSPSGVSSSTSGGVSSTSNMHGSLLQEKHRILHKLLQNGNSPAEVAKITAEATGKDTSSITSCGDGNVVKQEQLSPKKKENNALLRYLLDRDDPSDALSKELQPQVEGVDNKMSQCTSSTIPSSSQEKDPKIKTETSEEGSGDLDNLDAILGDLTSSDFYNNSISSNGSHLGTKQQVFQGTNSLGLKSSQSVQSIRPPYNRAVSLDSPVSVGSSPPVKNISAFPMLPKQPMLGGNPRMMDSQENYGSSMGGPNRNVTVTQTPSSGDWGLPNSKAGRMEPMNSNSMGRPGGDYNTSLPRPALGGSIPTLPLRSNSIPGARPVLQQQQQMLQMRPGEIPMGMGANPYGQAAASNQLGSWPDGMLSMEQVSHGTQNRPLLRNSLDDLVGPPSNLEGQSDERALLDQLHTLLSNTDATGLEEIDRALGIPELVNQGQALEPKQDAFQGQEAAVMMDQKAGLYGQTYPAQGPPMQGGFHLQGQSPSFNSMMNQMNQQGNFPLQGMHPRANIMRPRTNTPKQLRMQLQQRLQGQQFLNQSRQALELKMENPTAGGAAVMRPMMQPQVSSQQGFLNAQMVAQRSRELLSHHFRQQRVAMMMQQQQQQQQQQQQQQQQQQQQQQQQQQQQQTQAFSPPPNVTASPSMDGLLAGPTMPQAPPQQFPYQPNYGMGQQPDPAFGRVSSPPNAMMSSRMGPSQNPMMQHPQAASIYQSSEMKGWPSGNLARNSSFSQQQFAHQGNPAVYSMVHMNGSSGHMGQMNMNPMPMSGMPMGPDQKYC
UniProt Q9UM11: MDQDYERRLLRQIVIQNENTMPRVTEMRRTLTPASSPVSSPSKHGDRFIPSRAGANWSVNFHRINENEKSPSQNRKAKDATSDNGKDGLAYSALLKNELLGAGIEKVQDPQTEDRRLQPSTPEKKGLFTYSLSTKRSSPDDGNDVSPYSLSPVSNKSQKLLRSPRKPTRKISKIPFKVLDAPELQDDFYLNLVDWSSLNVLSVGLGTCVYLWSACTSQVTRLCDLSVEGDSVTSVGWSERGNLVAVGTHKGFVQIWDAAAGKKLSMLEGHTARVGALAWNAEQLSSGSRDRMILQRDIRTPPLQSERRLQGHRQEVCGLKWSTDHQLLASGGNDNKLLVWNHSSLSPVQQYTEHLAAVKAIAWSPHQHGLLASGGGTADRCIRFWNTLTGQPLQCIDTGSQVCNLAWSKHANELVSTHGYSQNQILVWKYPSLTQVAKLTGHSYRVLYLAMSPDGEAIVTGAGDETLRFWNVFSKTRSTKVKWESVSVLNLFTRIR

What was measured:
Experiment in all cases: co-IP; transiently transfected HEK-293T treated with proteasome inhibitor (MG-132) before harvest; NETN lysis; IP 2-4 h at 4°C with M2- or Myc-antibody beads (α-HA IP in Fig 4D); washes in NETN with additional 1% Triton X-100; immunoblot
FLAG-PCAF (human) = FLAG-PCAF (human) (UniProt Q92831)
Myc-NCOA3 (human) = Myc-NCOA3 (human) (UniProt Q9Y6Q9)
Myc-TTF2 (human) = molecular target: T1, Myc-TTF2 (human) (UniProt Q9UNY4)
T1 sequence: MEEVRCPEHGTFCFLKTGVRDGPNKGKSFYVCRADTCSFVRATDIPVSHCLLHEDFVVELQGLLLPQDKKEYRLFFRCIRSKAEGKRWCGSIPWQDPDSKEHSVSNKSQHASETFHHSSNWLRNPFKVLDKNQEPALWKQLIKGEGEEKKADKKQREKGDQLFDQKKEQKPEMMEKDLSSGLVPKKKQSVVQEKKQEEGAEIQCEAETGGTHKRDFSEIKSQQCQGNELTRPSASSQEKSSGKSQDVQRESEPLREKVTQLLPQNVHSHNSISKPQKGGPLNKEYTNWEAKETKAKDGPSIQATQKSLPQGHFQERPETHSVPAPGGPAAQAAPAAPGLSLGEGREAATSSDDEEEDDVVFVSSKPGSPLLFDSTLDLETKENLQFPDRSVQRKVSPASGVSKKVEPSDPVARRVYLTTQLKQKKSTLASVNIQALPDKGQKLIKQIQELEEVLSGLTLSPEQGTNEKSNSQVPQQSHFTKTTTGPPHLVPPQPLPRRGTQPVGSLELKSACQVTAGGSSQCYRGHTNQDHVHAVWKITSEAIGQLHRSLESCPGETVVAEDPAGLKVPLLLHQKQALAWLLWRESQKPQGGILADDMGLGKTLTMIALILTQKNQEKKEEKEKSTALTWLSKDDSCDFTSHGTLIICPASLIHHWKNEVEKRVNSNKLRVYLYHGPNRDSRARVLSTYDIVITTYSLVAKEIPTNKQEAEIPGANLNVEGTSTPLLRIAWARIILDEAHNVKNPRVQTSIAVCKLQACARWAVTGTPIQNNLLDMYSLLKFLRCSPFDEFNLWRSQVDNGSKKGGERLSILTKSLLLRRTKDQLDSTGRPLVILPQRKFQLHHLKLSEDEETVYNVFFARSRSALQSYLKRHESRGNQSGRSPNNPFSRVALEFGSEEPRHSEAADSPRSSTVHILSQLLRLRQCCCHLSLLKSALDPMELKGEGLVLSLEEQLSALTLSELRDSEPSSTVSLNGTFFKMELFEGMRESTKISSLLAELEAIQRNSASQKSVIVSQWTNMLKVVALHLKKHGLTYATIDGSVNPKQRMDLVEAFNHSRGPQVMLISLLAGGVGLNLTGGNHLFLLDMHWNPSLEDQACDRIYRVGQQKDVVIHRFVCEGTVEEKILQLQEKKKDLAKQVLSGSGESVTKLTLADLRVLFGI

[1] = molecular target: T2, Myc-UHRF1^KEN:AAA (human) (UniProt Q96T88)
T2 sequence: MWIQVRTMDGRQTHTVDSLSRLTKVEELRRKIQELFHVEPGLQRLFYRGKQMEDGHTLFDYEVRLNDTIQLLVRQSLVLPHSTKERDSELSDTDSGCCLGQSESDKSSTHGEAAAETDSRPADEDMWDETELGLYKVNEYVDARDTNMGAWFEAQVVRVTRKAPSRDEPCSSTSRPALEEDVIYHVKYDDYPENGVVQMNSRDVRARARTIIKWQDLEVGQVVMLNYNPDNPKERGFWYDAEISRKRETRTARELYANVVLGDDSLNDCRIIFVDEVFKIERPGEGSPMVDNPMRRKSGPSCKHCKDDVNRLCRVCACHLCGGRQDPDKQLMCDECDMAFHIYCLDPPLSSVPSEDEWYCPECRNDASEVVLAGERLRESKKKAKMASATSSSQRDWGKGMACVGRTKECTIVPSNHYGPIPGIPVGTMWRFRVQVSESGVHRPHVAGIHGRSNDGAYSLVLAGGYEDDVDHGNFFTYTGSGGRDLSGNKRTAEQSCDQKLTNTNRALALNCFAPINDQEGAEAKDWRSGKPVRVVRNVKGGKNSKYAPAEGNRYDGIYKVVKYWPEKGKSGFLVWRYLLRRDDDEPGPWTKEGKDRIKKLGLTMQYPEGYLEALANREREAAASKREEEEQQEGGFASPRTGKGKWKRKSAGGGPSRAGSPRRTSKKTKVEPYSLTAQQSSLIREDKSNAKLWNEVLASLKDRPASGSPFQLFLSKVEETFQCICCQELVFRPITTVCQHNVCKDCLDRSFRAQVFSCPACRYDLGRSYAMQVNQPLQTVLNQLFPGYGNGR

Myc-UHRF1^WT (human) = molecular target: T3, Myc-UHRF1^WT (human) (UniProt Q96T88)
T3 sequence: T2 sequence with A622K, A623E, A624N

Measured: binding

HA-Cdh1 (from UniProt Q9UM11 1-496)
binds: all assays above
